For assay [1], the system named is cGAMP-stimulated THP1-Dual cells (pathway directly downstream of cGAS). Description: cGAMP stimulated counter cell assay: inhibition of IFN induction in cGAMP-stimulated THP1 cells (THP1(cGAMP) IC50). In kind it is cell-based, human. The text has this: (§1) 6.2 Method: Human cGAS Cell Assay and cGAMP Stimulated Counter Cell Assay (THP1(vir) IC50 and THP1(cGAMP) IC50)
(§2) THP1-Dual™ cells (InvivoGen #thpd-nfis) expressing IRF dependent Lucia luciferase reporter were used as basis for both assays. For the detection of cellular cGAS activity cells were stimulated by a baculovirus (pFastbac-1, Invitrogen, no coding insert) infection that delivers the cGAS enzyme stimulating double-stranded DNA (measurement of THP1(vir) IC50).
(§3) For the counter assay, cells were stimulated by cGAMP (SigmaAldrich #SML1232) to activate the identical pathway independent and directly downstream of cGAS (measurement of THP1(cGAMP) IC50). Pathway activity was monitored by measuring the Lucia luciferase activity induced by either DNA stimulated cGAS enzyme activity (measurement of THP1(vir) IC50) or by cGAMP directly (measurement of THP1(cGAMP) IC50, counter assay). […]
(§4) Following that, 15 μl of QuantiLuc detection reagent (InvivoGen #rep-qlcg5) were added to each well using a MultiDrop Combi. Measurement was done immediately after the addition using an EnVision reader (US-luminescence read-mode).
(§5) For data evaluation and calculation, the measurement of the low control was set as 0% control and the measurement of the high control was set as 100% control. The IC50 values were calculated using the standard 4 parameter logistic regression formula. […]

Sequences of proteins named here, by UniProt entry; tags and fusion partners are left off.
UniProt Q8N884, whole entry: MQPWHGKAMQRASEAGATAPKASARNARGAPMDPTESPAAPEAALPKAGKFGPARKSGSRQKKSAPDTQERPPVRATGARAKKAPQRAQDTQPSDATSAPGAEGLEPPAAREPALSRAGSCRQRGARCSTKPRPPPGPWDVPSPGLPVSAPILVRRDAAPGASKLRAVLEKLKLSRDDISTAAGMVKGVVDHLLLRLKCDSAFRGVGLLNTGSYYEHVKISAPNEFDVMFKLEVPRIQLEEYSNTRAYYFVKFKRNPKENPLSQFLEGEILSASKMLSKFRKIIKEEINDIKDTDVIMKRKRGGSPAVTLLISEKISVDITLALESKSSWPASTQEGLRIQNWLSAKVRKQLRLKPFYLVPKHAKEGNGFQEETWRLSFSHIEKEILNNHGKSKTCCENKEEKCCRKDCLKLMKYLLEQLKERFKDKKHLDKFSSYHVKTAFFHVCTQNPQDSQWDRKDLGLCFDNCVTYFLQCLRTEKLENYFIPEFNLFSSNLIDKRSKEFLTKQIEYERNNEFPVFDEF

Another assay addresses cGAS (Homo sapiens (Human), UniProt Q8N884). Description: Human cGAS enzyme assay (hcGAS IC50, in vitro), cGAMP formation by RapidFire MS.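 Note: enzyme activated by 45 bp dsDNA with GTP and ATP (30 µM each), 60 min compound pre-incubation then 90 min reaction, cGAMP relative to cyclic-di-GMP internal standard, 8-point dilutions up to 10 µM.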 The conditions noted are these: read-out: hcGAS IC50; biochemical (in vitro) cGAS inhibition.
The test system of assay [2] is cellular cGAS activity in baculovirus-stimulated THP1-Dual cells (IRF dependent Lucia luciferase reporter). Kind of assay: Human cGAS cell assay: inhibition of IFN induction in virus-stimulated THP1 cells (THP1(vir) IC50). It counts as cell-based. The settings on record: read-out: THP1(vir) IC50.
Text: as §1, §2, §3, §4, §5

Assay [3] deals with cellular cGAS activity in dsDNA-stimulated human whole blood. Description: Human whole blood assay (hWB IC50): IFNα2α production after dsDNA transfection. The settings on record: read-out: hWB IC50; inhibition of IFN induction in dsDNA-stimulated human whole blood.

Each structure is given as a SMILES string. The match of structure and compound is tentative.

`CC1(C#N)CCCN(c2cc(Cl)cnc2O[C@H]2C[C@@H](C(=O)O)N(c3nc(C(F)(F)F)nc4c3oc3ccccc34)C2)C1` (some centres unmarked): the IC50 came out at 12.5 µM in assay [1] (read-out: THP1(cGAMP) IC50, inhibition of IFN induction in cGAMP-stimulated THP1 cells); 0.014 µM at cGAS; 0.775 µM in assay [2]; 9.51 µM in assay [3]. In assay [1] (selectivity for cGAS inhibition), the “Ratio THP1(cGAMP) IC50 / THP1(vir) IC50” value is 16.

(Values after US20240342186A1, “PYRIDINE DERIVATIVES WITH N-LINKED CYCLIC SUBSTITUENTS AS cGAS INHIBITORS” (Boehringer Ingelheim International GmbH, priority 2021, published 2024).)
